Assay results: patent US20230242640A1
Numbering of substitutions follows the chain as printed. These are yes or no findings as the source states them, for the method shown. Some binding calls cover weakened binding; strength is not graded here. Tags and fused reporters may be left off the sequences shown.

T1: peptide human SIRPgamma …-6His (human)
T1 sequence (peptide): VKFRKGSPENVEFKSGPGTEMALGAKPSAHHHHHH

B1: anti-SIRPg antibody A1 (antibody, human IgG4 S228P, kappa, V domains shown)
VH: EVQLVESGGGVVRPGGSLRLSCAASGFTFDDYGMSWVRQAPGKGLEWVSGINWNGGSTGYADSVKGRFTISRDNAKNSLYLQMNSLRAEDTAVYYCARWIAKVWGQGTLVTVSR
VL: SSELTQDPAVSVALGQTVRITCQGDSLRSYYASWYQQKPGQAPVLVIYGKNNRPSGIPDRFSGSSSGNTASLTITGAQAEDEADYYCNSRDSSGNHVVFGGGTKLTVLR
B2: anti-SIRPg antibody A5 (antibody, human IgG4 S228P, kappa, V domains shown)
VH: B1 VH with W99Q, I100M, A101V, V103L
VL: B1 VL

Biological target: T1, peptide human SIRPgamma …-6His (human)
Assay: ELISA on coated peptide SIRPg-His

Row | Binder | binding
1 | B1 | binds
2 | B2 | binds
